{"source": "paper PMC8624160", "key": {"[1]": {"test_system": "thrombin", "assay": "binding assay", "conditions": "Binding buffer, ex/em 333/426 nm, constant SITS-aptamer, thrombin titrated, triplicate, commercial protein, folded or branched DNA"}, "[2]": {"test_system": "thrombin", "assay": "fluorescence attenuation kinetics (kapp)", "conditions": "internal T6 (CH2)6-NH2 linker coupled to SITS; Binding buffer; ex/em 333/426 nm, constant SITS-aptamer, thrombin titrated, triplicate; commercial protein; label: SITS stilbene (T6); folded or branched DNA"}}, "note": "For at least one entry, the source does not settle the construct or the ends of the probe."}
{"sequence": "AGTCCGTGGTAGGGCAGGTTGGGGTGACT [Thrombin29 (unmodified)]", "values": [{"measurement": "Kd", "setting": "[1]; section 4.2 gives ~0.7 nM instead", "result": 0.5, "unit": "nM"}]}
{"sequence": "GTCCGTGGTAGGGCAGGTTGGGGTGAC [Thrombin27 (unmodified)]", "values": [{"measurement": "Kd", "setting": "[1]; section 4.2 gives ~0.5 nM instead", "result": 0.7, "unit": "nM"}]}
{"sequence": "GTCCGTGGTAGGGCAGGTTGGGGTGAC [SITS-Thrombin27 T6]", "values": [{"measurement": "Kd", "setting": "[2]", "result": 982, "unit": "nM"}]}
